This is a selection; strong and weak results do not stand in their true shares. For part of these data: At the low end of the ranking, values are background and their order means little. This is one part of the list. For part of these data: Construct or isoform of the protein are uncertain.

One assay has as its target T1, GABPA (UniProt Q06546).
T1 sequence: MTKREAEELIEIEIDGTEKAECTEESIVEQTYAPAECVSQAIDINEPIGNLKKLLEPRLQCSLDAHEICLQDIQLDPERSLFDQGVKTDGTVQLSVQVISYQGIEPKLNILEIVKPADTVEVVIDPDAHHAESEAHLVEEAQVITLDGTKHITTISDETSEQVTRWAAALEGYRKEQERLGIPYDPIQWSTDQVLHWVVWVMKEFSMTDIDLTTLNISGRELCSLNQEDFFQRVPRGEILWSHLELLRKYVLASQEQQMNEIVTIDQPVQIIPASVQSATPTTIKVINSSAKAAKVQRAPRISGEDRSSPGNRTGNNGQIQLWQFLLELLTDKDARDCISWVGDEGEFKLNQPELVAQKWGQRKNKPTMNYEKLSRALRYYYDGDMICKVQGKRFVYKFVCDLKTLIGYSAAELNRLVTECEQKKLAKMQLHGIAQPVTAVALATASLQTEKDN
The experiment in a line: DAPPL (digital affinity profiling via proximity ligation, sequencing). Particulars: 10 mM Tris-HCl pH 7.5, 50 mM NaCl, 1 mM DTT, 4% glycerol, room temperature, 30 min; GST-TFs on glutathione beads, 16-mer random dsDNA library, 0.1% …; high values mean tight binding; double strand, one strand shown; scale: fold enrichment (6-mer frequency, TF over GST control).
Sequence TAACTA came in with a binding signal of 1.46.

With CAAAGT, the binding signal came out at 0.943.

TTAGAG registered a binding signal of 0.893.

CAGCTC gave a binding signal of 1.01.

In turn, TCCAGA yielded a binding signal of 0.862.

Regarding TTCTAC, the binding signal came to 1.59.

TAAACC yielded a binding signal of 1.22.

On to TGAAAG, for which the binding signal is 0.965.

Take CGTTGG: the binding signal came to 0.889.

In the case of CATAGT, the binding signal was found to be 0.989.

For the sequence GTGCGC, the binding signal amounted to 0.901.

Regarding TGCATT, the binding signal was found to be 1.37.

For the sequence TCGAGG, the binding signal was 0.84.

The sequence CGATGT showed a binding signal of 1.08.

Consider TTCATT, for which the binding signal was 1.16.

Regarding ACTGAT, the binding signal came to 1.27.

In turn, CCAGAT returned a binding signal of 0.864.

In turn, CCAGAA gave a binding signal of 0.957.

Consider CACCTA, for which the binding signal was found to be 1.04.

As for TCAGTA, the binding signal stood at 0.977.

Turning to GTGTTG, the binding signal came out at 0.865.

As for AGCCCA, the binding signal was found to be 0.931.

Take CGAGAA: the binding signal amounted to 0.956.

Turning to AAGTAT, the binding signal came to 1.4.

AGCGAA returned a binding signal of 0.915.

AGGTTC had a binding signal of 0.87.

As for AGGCAC, the binding signal amounted to 0.835.

Take CATAAA: the binding signal was 0.99.

CGAAGT: the binding signal came out at 0.942.

GCCATC returned a binding signal of 0.945.

In the case of AGTTAC, the binding signal turned out to be 0.904.

In turn, AGAAGG came in with a binding signal of 0.718.

On to GTGGTC, for which the binding signal turned out to be 0.803.

As for TCGAAG, the binding signal is 0.938.

The sequence AAGGGA came in with a binding signal of 0.913.

In turn, GCAGCA showed a binding signal of 0.998.

The sequence TTTAGA came in with a binding signal of 0.957.

Take GTTGAA: the binding signal worked out at 0.831.

Turning to TCCGTT, the binding signal worked out at 1.42.

AGGAAT: the binding signal was determined as 0.749.

The target of a further assay is T2, ETS1 (UniProt P14921).
T2 sequence: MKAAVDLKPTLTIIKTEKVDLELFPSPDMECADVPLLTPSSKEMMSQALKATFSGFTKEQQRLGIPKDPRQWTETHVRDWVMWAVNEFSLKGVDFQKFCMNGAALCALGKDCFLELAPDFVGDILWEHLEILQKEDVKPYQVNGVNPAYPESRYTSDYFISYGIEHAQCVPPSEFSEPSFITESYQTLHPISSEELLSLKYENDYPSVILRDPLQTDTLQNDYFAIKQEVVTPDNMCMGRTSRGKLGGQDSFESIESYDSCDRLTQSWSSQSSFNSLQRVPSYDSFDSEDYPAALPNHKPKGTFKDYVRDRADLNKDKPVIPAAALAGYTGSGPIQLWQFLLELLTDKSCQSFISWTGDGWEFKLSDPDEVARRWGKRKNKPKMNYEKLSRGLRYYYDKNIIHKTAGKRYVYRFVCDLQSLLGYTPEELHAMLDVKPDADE
Described as above. Particulars: 10 mM Tris-HCl pH 7.5, 50 mM NaCl, 1 mM DTT, 4% glycerol, room temperature, 30 min; GST-TFs on glutathione beads, 16-mer random dsDNA library, 0.1% …; high values mean tight binding; double strand, one strand shown; scale: fold enrichment (6-mer frequency, TF over GST control).
As to TAACTA, the binding signal amounted to 1.3.

For CAAAGT, the binding signal was 0.958.

TTAGAG gave a binding signal of 0.869.

Turning to CAGCTC, the binding signal turned out to be 0.953.

For the sequence TCCAGA, the binding signal came to 0.885.

Regarding TTCTAC, the binding signal came out at 1.5.

TAAACC displayed a binding signal of 1.27.

TGAAAG registered a binding signal of 0.955.

CGTTGG showed a binding signal of 0.95.

Regarding CATAGT, the binding signal is 1.01.

Turning to GTGCGC, the binding signal is 1.05.

Sequence TGCATT had a binding signal of 1.4.

For TCGAGG, the binding signal was 0.849.

Take CGATGT: the binding signal was determined as 0.994.

In the case of TTCATT, the binding signal was found to be 1.28.

With ACTGAT, the binding signal is 1.34.

On to CCAGAT, for which the binding signal was determined as 0.874.

In turn, CCAGAA showed a binding signal of 0.954.

Sequence CACCTA gave a binding signal of 0.994.

The sequence TCAGTA displayed a binding signal of 0.861.

GTGTTG had a binding signal of 0.879.

Regarding AGCCCA, the binding signal was found to be 1.04.

Consider CGAGAA, for which the binding signal was 0.872.

Turning to AAGTAT, the binding signal amounted to 1.43.

AGCGAA had a binding signal of 0.915.

AGGTTC displayed a binding signal of 0.827.

On to AGGCAC, for which the binding signal was 0.778.

On to CATAAA, for which the binding signal was 1.05.

In turn, CGAAGT came in with a binding signal of 1.02.

For GCCATC, the binding signal was determined as 0.894.

AGTTAC: the binding signal worked out at 0.96.

AGAAGG returned a binding signal of 0.731.

In turn, GTGGTC displayed a binding signal of 0.825.

For the sequence TCGAAG, the binding signal amounted to 0.927.

Consider AAGGGA, for which the binding signal turned out to be 0.905.

Take GCAGCA: the binding signal came to 0.961.

Consider TTTAGA, for which the binding signal is 0.999.

Regarding GTTGAA, the binding signal stood at 0.927.

Turning to TCCGTT, the binding signal came to 1.55.

On to AGGAAT, for which the binding signal worked out at 0.76.

For a further assay, the target named is T3, SPDEF (UniProt O95238).
T3 sequence: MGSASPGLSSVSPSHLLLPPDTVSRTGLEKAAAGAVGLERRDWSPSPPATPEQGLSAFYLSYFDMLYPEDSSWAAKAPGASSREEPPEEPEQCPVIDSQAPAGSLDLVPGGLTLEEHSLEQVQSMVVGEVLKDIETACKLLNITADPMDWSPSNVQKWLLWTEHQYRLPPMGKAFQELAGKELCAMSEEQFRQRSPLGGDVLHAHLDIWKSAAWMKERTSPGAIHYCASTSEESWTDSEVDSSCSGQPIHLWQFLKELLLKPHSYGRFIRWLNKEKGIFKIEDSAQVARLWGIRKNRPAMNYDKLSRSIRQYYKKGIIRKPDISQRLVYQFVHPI
The assay is described as above. Particulars: 10 mM Tris-HCl pH 7.5, 50 mM NaCl, 1 mM DTT, 4% glycerol, room temperature, 30 min; GST-TFs on glutathione beads, 16-mer random dsDNA library, 0.1% …; high values mean tight binding; double strand, one strand shown; scale: fold enrichment (6-mer frequency, TF over GST control).
In turn, TAACTA yielded a binding signal of 1.26.

CAAAGT registered a binding signal of 0.915.

TTAGAG gave a binding signal of 0.886.

The sequence CAGCTC returned a binding signal of 0.936.

Consider TCCAGA, for which the binding signal was determined as 0.877.

TTCTAC displayed a binding signal of 1.5.

The sequence TAAACC had a binding signal of 1.28.

In the case of TGAAAG, the binding signal is 0.926.

Turning to CGTTGG, the binding signal was 0.983.

The sequence CATAGT returned a binding signal of 0.935.

The sequence GTGCGC had a binding signal of 0.871.

TGCATT yielded a binding signal of 1.41.

With TCGAGG, the binding signal was determined as 0.756.

Consider CGATGT, for which the binding signal worked out at 1.12.

TTCATT had a binding signal of 1.24.

The sequence ACTGAT gave a binding signal of 1.1.

As to CCAGAT, the binding signal worked out at 0.929.

The sequence CCAGAA came in with a binding signal of 0.956.

CACCTA had a binding signal of 0.959.

Consider TCAGTA, for which the binding signal was 0.932.

GTGTTG registered a binding signal of 1.01.

Sequence AGCCCA returned a binding signal of 0.855.

The sequence CGAGAA came in with a binding signal of 0.83.

On to AAGTAT, for which the binding signal stood at 1.31.

With AGCGAA, the binding signal came to 0.861.

In turn, AGGTTC registered a binding signal of 0.906.

AGGCAC came in with a binding signal of 0.787.

For the sequence CATAAA, the binding signal came to 0.944.

The sequence CGAAGT displayed a binding signal of 0.85.

In turn, GCCATC gave a binding signal of 0.961.

In turn, AGTTAC came in with a binding signal of 0.96.

AGAAGG had a binding signal of 0.608.

On to GTGGTC, for which the binding signal was determined as 0.774.

Turning to TCGAAG, the binding signal came to 0.874.

AAGGGA yielded a binding signal of 0.898.

On to GCAGCA, for which the binding signal worked out at 0.933.

The sequence TTTAGA yielded a binding signal of 0.952.

In turn, GTTGAA gave a binding signal of 0.93.

TCCGTT had a binding signal of 1.74.

AGGAAT gave a binding signal of 0.768.

The record behind these values is article PMC7862700.
